# Entries after “also recorded” stand apart in the source; their conditions may differ. Some of these results come from one statement about several compounds together.
# How the values were obtained:
# [1] = test system: spleen CD11c+ cells (DCs and NK cells); assay: Cytokine production by DCs after in vivo glycolipid; design: species or system mouse; settings: ELISA; could not be detected
# Protocol: Cytokine production by DCs. After mice were given αGalCer or Compound 24 i.v., CD11c+ cells were isolated with anti-CD11c magnetic beads and cultured 4 h in the presence of Golgistop (from Cytofix/CytoPerm Plus kit; BD Biosciences). Cells were then stained for surface markers (CD11c and DX-5), permeabilized in 100 μl Cytofix/Cytoperm solution using manufacturer's instructions and stained for intracellular cytokines (IFN-γ and IL-12).
# [2] = test system: CD1d reactive T cell hybridomas with an invariant Vα14i T cell antigen receptor; assay: 1.2 hybridoma assay (IL-2 release by ELISA); type: cell-based, mouse; settings: 0.0001-1 μg/ml; CD1d transfected A20 cells
# Protocol: As a measure of T cell activation, IL-2 release into the tissue culture medium was measured after 16 hours culture by an ELISA assay.
# As a measure of T cell activation, IL-2 and IFN-γ release into the tissue culture medium was measured after 16 hours culture by an ELISA assay.
Compound,IL-4 in culture supernatants of DCs from primed mice [1] [pg/mL],IL-10 in culture supernatants of DCs from primed mice [1] [pg/mL],IL-2 production (relative activity of fatty acyl chain analogs) [2]
3-O-sulfo-alpha-galactosylceramide [Compound 24],< 10,< 10,–
CCCCCCCCCCCCCC[C@@H](O)[C@@H](O)[C@H](COC1OC(CO)C(O)C(O)C1O)NC(=O)CCCCCc1ccccc1 (stereo partly drawn) [Compound 83],–,–,much more potent than α-GalCer; also recorded: much more potent IL-2 production than that of other groups
CCCCCCCCCCCCCC[C@@H](O)[C@@H](O)[C@H](COC1OC(CO)C(O)C(O)C1O)NC(=O)CCCCCCCc1ccccc1 (stereo partly drawn) [Compound 84],–,–,much more potent than α-GalCer; also recorded: much more potent IL-2 production than that of other groups
"CCCCCCCCCCCCCCCCCCCCCCCCCC(=O)N[C@@H](CO[C@H]1O[C@H](CO)[C@H](O)[C@H](O)[C@H]1O)[C@H](O)[C@H](O)CCCCCCCCCCCCCC [α-GalCer, 2S,3S,4R-1-O(α-galactopyranosyl)-2(N-hexacosanoylamino)-1,3,4-octadecanetriol]",< 10,< 10,–

# Reference: patent publication US20090117089A1, “GLYCOLIPIDS AND ANALOGUES THEREOF AS ANTIGENS FOR NK T CELLS” (The Rockefeller University, priority 2005, published 2009)
